# In PubChem BioAssay AID720504 (National Center for Advancing Translational Sciences (NCATS), 2013):
# By UniProt entry, the sequences of proteins in these tests, tags left out.
# UniProt P53350, whole entry, looked up: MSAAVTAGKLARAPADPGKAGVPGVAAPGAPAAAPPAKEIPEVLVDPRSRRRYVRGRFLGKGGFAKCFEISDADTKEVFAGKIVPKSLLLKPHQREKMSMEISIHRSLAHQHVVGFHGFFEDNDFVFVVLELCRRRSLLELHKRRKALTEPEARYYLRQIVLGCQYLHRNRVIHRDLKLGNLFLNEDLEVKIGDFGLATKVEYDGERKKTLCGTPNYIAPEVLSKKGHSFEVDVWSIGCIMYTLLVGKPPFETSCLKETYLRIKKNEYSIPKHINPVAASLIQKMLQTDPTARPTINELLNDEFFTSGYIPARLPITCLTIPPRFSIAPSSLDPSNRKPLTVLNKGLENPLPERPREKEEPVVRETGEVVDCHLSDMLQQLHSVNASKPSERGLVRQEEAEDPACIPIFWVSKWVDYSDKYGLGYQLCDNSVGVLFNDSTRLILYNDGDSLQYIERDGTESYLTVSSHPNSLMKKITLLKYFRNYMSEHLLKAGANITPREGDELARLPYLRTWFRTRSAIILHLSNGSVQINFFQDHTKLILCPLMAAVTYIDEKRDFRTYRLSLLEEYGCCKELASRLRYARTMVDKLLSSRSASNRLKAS
# The campaign covered roughly 360,000 compounds. About 10,000 (2.8%) were called active. This list was built around the results that the source calls inconclusive (neither active nor inactive); the mix of calls is not that of the screen. The call rests on the fitted dose curve; in most records, active means well fitted inhibition curve with a large enough effect; inconclusive means small, poorly fitted or top-dose-only effect; inactive means flat fitted curve, though single readings scatter. Potencies of inconclusive entries are doubtful fits and often do not repeat.
# Biological target: Serine/threonine-protein kinase PLK1 (Homo sapiens) (UniProt P53350)
# Experiment: qHTS for Inhibitors of PLK1-PDB (polo-like kinase 1 - polo-box domain): Primary Screen; further: nearly all actives have a fitted effect of over 65% in size; on max response, negative = inhibition: series mostly up to about 57 µM
# Settings: Plk1 PBD binding of FITC phosphopeptide, fluorescence polarization
# On the % scale 0 is the no-effect control and ±100 the full control effect; potency means the concentration at half of the fitted maximal effect.
Structure (SMILES),"max response, negative = inhibition",Potency
Nc1ccc(Cl)c(S(=O)(=O)Nc2cccc(Cl)c2)c1,inactive: -0.472%,–
COc1ccc(S(=O)(=O)Oc2c(OC)cc(C(=S)N3CCOCC3)cc2OC)cc1,–,active: 26.7 µM
c1ccc2c(c1)[nH]c1nc(SCCN3CCOCC3)nnc12,–,active: 26.7 µM
CCOC(=O)N/N=C\c1ccc(OC(=O)c2ccco2)cc1,–,"inconclusive: 21.2 µM [inhibitor, partial curve]"
N#Cc1ccc(OCC(=O)Nc2nc(-c3ccncc3)cs2)cc1,inactive: -6.59%,–
COc1cc(N2C(=O)c3ccccc3C2=O)c(Cl)cc1C(=O)OCC(=O)N(C)C,–,"inconclusive: 23.8 µM [inhibitor, single point]"
Brc1ccc(NC2=Nc3ccccc3CC2)cc1,–,active: 11.9 µM
Cn1c(=O)c(C(=O)CCl)c(N)n(CC2CC2)c1=O,–,"inconclusive: 15 µM [inhibitor, partial curve]"
Cc1ccc(C(=O)Nc2cccnc2)cc1S(=O)(=O)N1CCCCC1,–,active: 16.8 µM
Cc1ccc2cc(CCNC(=O)c3ccc4c(c3)OCO4)c(=O)[nH]c2c1C,inactive: 4.71%,–
COc1ccc(C(C#N)c2ccc(Cl)nn2)cc1 (stereo not drawn),–,"inconclusive: 26.7 µM [inhibitor, single point]"
O=C(COC(=O)C1=COCCO1)Nc1ncc(C(F)(F)F)cc1Cl,–,"inconclusive: 21.2 µM [inhibitor, partial curve]"
CCc1ccccc1NC(=S)N1CCN(c2cccc(OC)c2)CC1,inactive: 3.8%,–
COc1ccc2[nH]c3c(c2c1)CCNC3c1ccc([N+](=O)[O-])o1 (stereo not drawn),–,"inconclusive: 23.8 µM [inhibitor, partial curve]"
O=[N+]([O-])c1ccc(O)c(C2=NNC(c3ccccc3F)C2)c1 (stereo not drawn),–,"inconclusive: 29.9 µM [inhibitor, partial curve]"
OCCN(Cc1ccccc1)C(=S)Nc1ccc(Cl)cc1Cl,–,"inconclusive: 10.6 µM [inhibitor, partial curve]"
O=C(NC(=S)Nc1ccc(CN2CCOCC2)cc1)c1ccc([N+](=O)[O-])cc1,–,"inconclusive: 23.8 µM [inhibitor, single point]"
CCS(=O)(=O)C1C(=O)N(C)C(S(=O)(=O)CC)C(=O)N1C (stereo not drawn),–,"inconclusive: 26.7 µM [inhibitor, partial curve]"
CSCCC(NC(=O)C12CC3CC(CC(C3)C1)C2)C(=O)OCC(=O)c1ccc(C)cc1 (stereo not drawn),inactive: -9.81%,–
Clc1cccc(Cl)c1/C=N\Nc1nccs1,inactive: -3.55%,–
COc1cc(-c2nnc3sc(Cc4ccc(Cl)cc4)nn23)cc(OC)c1OC,–,active: 23.8 µM
COc1cc(NC(=O)c2cccs2)c(OC)cc1NC(=O)Cc1ccccc1,inactive: -0.0139%,–
COc1cc2c(cc1OC)C1=NC(=O)CN1C(SCc1ccccc1)=N2,–,active: 26.7 µM
COC(=O)c1ccc2c(c1)C(C)(C)C(/C=C/c1ccc(OC)c(OC)c1OC)=[N+]2C,–,"inconclusive: 2.12 µM [inhibitor, partial curve, poor fit]"
COc1ccc2nc(NC(=O)Cc3ccc(OC)c(S(=O)(=O)N4CCOCC4)c3)sc2c1,–,"inconclusive: 29.9 µM [inhibitor, single point]"

# Molecules shown so far that contain a furan ring, fused or not, in the order listed:
Structure (SMILES),"max response, negative = inhibition",Potency
CCOC(=O)N/N=C\c1ccc(OC(=O)c2ccco2)cc1,–,"inconclusive: 21.2 µM [inhibitor, partial curve]"
COc1ccc2[nH]c3c(c2c1)CCNC3c1ccc([N+](=O)[O-])o1 (stereo not drawn),–,"inconclusive: 23.8 µM [inhibitor, partial curve]"

# (continued)

Structure (SMILES),"max response, negative = inhibition",Potency
CN(C)CCCN(C(=O)CCOc1ccccc1)c1nc2ccc(F)cc2s1,–,"inconclusive: 7.52 µM [inhibitor, partial curve]"
Cn1ccc(C(=O)Nc2sc3c(c2C#N)CCC3)n1,–,"inconclusive: 21.2 µM [inhibitor, partial curve]"
O=C(NCc1csc(-c2ccccc2)n1)c1ccco1,inactive: -4.72%,–
Cc1ccc(-c2cc(C(=O)N3CCOCC3)c3ccccc3n2)cc1,–,"inconclusive: 23.8 µM [inhibitor, partial curve]"
O=C1NC(=O)/C(=C\c2ccc(Sc3ccc(Cl)cc3)o2)N1,–,"inconclusive: 29.9 µM [inhibitor, partial curve]"
O=C(Cc1ccc(Cl)cc1)NNC(=S)NC(=O)c1cccnc1,inactive: -14.4%,–
COC(=O)c1c(NC(=O)CSc2nc(-c3ccco3)cc(C(F)(F)F)n2)sc2c1CCCC2,–,"inconclusive: 18.9 µM [inhibitor, partial curve]"
CC(=O)c1cccc(NC(=O)c2sc3nc4n(c(=O)c3c2C)CCCC4)c1,–,active: 23.8 µM
O=C(COC(=O)c1ccc(O)cc1)Nc1ccc2c(c1)OCO2,inactive: 1.97%,–
CCCCCCn1c(SCC(=O)OC)nc2c1c(=O)[nH]c(=O)n2C,–,active: 5.32 µM
Clc1ccc(C2=CC(c3ccco3)n3ncnc3N2)cc1 (stereo not drawn),–,"inconclusive: 29.9 µM [inhibitor, partial curve]"
Cc1cc(C)nc(N/N=C2/CCCC/C2=C\c2ccccc2)n1,inactive: -6.03%,–
O=C(CSc1nnc2c(n1)[nH]c1ccccc12)NCc1ccco1,–,active: 29.9 µM
COc1cccc(/C=C2/NC(=O)N(CC(=O)Nc3ccc(C)cc3)C2=O)c1OCc1cccc(C(=O)O)c1,–,"inconclusive: 21.2 µM [inhibitor, single point]"
CCOc1ccc(-n2c(=S)sc3c(=O)[nH]c(SCC(=O)NCc4ccco4)nc32)cc1,–,"inconclusive: 29.9 µM [inhibitor, partial curve]"
C=CCn1c(SCc2ccccc2)nc2c1c(=O)[nH]c(=O)n2C,–,active: 26.7 µM
S=C(c1ccc(-c2cccc(Cl)c2)o1)N1CCCCC1,–,"inconclusive: 37.7 µM [inhibitor, single point]"
O=C(CSc1nc2ccccc2s1)NNC(=S)Nc1ccc(Br)cc1,–,"inconclusive: 21.2 µM [inhibitor, partial curve]"
CC(C(=O)N(C)C1CCS(=O)(=O)C1)N1C(=O)/C(=C/c2ccc(F)cc2)SC1=S (stereo not drawn),–,"inconclusive: 26.7 µM [inhibitor, single point]"
COCCCNC(=S)NNC(=O)c1cc(-c2ccncc2)nc2ccccc12,inactive: -2.25%,–
O=c1c2ccccc2n2c(=S)[nH]nc2n1-c1ccccc1,–,active: 21.2 µM
CC1CCC/C(=C\Nc2ccc(O)cc2)C1=O (stereo not drawn),inactive: -5.32%,–
Cc1nc(N(C)C2CCCCC2)c2nnn(Cc3ccc(F)cc3)c2n1,inactive: 3.7%,–
Oc1ccc(/C=N/N(c2ccccc2)c2ccccc2)cc1O,–,"inconclusive: 23.8 µM [inhibitor, single point]"
CCc1nc2ccc(C(=O)N3CCN(C(C)=O)CC3)cn2c1N(CC)C(=O)NCCc1ccccc1,inactive: -14.4%,–

# A run of entries of the results above, for reference:
Structure (SMILES),"max response, negative = inhibition",Potency
O=C(CSc1nc2ccccc2s1)NNC(=S)Nc1ccc(Br)cc1,–,"inconclusive: 21.2 µM [inhibitor, partial curve]"
CC(C(=O)N(C)C1CCS(=O)(=O)C1)N1C(=O)/C(=C/c2ccc(F)cc2)SC1=S (stereo not drawn),–,"inconclusive: 26.7 µM [inhibitor, single point]"
COCCCNC(=S)NNC(=O)c1cc(-c2ccncc2)nc2ccccc12,inactive: -2.25%,–

# More structures.

Structure (SMILES),"max response, negative = inhibition",Potency
COc1ccccc1-n1c(=S)sc2c(=O)n(Cc3ccco3)c(SC)nc21,–,"inconclusive: 29.9 µM [inhibitor, partial curve]"
O=C(CCS(=O)(=O)c1ccc(Cl)cc1)NCCc1c[nH]c2ccccc12,–,"inconclusive: 26.7 µM [inhibitor, single point]"
O=C(O)CCCc1ccc2ccc3cccc4ccc1c2c34,inconclusive: -32.9% [inhibitor],–
CCn1c(=S)[nH]c2ccccc21,inactive: -16.1%,–
COC(=O)c1ccc(NN=Nc2ccc(C)cc2)cc1,–,"inconclusive: 26.7 µM [inhibitor, single point]"
Cc1ccc(S(=O)(=O)N2CCCC2C(=O)NCCc2ccccc2)cc1 (stereo not drawn),–,"inconclusive: 29.9 µM [inhibitor, single point]"
COc1ccc(N/C=C(\[N+](=O)[O-])S(=O)(=O)c2ccccc2)cc1,–,active: 29.9 µM
CCn1cc(CN2CCc3c([nH]c4ccccc34)C2c2cccc(OC)c2OC)c(C)n1 (stereo not drawn),–,"inconclusive: 21.2 µM [inhibitor, partial curve]"
O=C(CSc1ccc(-c2ccccc2)nn1)NCC1CCCO1 (stereo not drawn),–,"inconclusive: 37.7 µM [inhibitor, partial curve]"
O=C(Cc1nnc(NC(=O)c2ccccc2)s1)N/N=C\c1ccc(O)c(O)c1,–,"inconclusive: 23.8 µM [inhibitor, partial curve]"
Cc1ccc(S(N)(=O)=O)cc1NC(=O)C(c1ccccc1)c1ccccc1,inactive: -8.31%,–
O=C(Nc1cc(C(F)(F)F)ccc1Cl)C(Sc1cccc[n+]1[O-])c1ccccc1 (stereo not drawn),–,"inconclusive: 23.8 µM [inhibitor, partial curve]"
O=[N+]([O-])c1ccc(S(=O)(=O)NN=Cc2ccc(Cl)c(Cl)c2)cc1,–,active: 10.6 µM
CCN(CC)c1ccc2cc(S(=O)(=O)c3ccc(Cl)cc3)c(=O)oc2c1,–,active: 18.9 µM
Cc1sc2nc(CSCC(=O)NC3(C#N)CCCCC3)[nH]c(=O)c2c1C,–,"inconclusive: 26.7 µM [inhibitor, single point]"
COC(=O)c1ccccc1NC(=O)c1noc2c1CCC2,–,"inconclusive: 21.2 µM [inhibitor, single point]"
COC(=O)C1=C(C)N(C)C(=O)/C1=C\c1cccs1,inactive: -6.76%,–
O=C(COC(=O)CSc1ccc([N+](=O)[O-])cc1)NCc1cccs1,–,"inconclusive: 13.4 µM [inhibitor, partial curve]"
CCOC(=O)c1c(NC(=O)c2ccc(C)cc2)sc2c1CC(C)(C)OC2,–,active: 23.8 µM
CCc1ccc(N(CC(=O)NCC2CCCO2)C(=O)CCC(=O)Nc2nccs2)cc1 (stereo not drawn),inactive: -4.31%,–
COc1ccc(-c2nnnn2C(C)C)cc1S(=O)(=O)Nc1ccccc1,–,"inconclusive: 23.8 µM [inhibitor, single point]"
O=C(NCC(c1ccco1)N1CCCCC1)c1ccc(S(=O)(=O)Nc2ccccc2Cl)cc1 (stereo not drawn),inactive: -16.3%,–
Cc1cc(C)c2cc(CN(CC3CCCO3)C(=S)NCc3ccco3)c(=O)[nH]c2c1 (stereo not drawn),–,"inconclusive: 33.6 µM [inhibitor, single point]"
